Results are given in words; binding and its absence hold for the method and conditions named. In cells and extracts the contact can be indirect. Binding calls can cover weak binding; strength is not graded here.
Columns and labels:
[1] = target: T1, thioredoxin-interacting protein (TXNIP), endogenous mouse (mouse (endogenous in BM cells and HSCs)) (UniProt Q8BG60); assay: proximity ligation; in situ PLA in old LT-HSCs treated with 10 μM TAT or TAT-TN13 for 1 h
T1 sequence: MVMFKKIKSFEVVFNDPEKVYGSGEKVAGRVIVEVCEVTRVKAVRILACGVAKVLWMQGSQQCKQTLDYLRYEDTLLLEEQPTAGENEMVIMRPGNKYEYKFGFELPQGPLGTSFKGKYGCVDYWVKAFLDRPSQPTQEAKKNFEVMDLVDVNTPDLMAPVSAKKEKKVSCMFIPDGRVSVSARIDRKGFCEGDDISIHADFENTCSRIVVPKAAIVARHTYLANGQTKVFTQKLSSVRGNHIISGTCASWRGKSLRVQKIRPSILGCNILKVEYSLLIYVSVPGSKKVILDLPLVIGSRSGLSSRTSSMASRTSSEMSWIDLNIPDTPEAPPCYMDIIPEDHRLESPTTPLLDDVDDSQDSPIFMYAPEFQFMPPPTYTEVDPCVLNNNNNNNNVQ

[2] = target: T1, thioredoxin-interacting protein (TXNIP), endogenous mouse (mouse (endogenous in BM cells and HSCs)); assay: co-IP; immunoprecipitation in old mouse BM cells treated with 10 μM TAT or TAT-TN13 for 1 h

binding [1]: binds
binding [2]: binds
Substance: p38 mitogen-activated protein kinase (p38), endogenous mouse (enzyme)

Reference: paper PMC5155146, “Thioredoxin-interacting protein regulates haematopoietic stem cell ageing and rejuvenation by inhibiting p38 kinase activity” (Nature Communications, 2016)
